{"source": "PubChem BioAssay AID1259308 (NCATS, 2017)", "aim": "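Knock-downs that increase output of a recombinant reporter protein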 (primary screen)", "cell system": "human HEK293 embryonic kidney cells stably expressing firefly luciferase (HEK-CMV-Luc2-Hygro)", "reagent": "single siRNA against human genes, 0.8 pmol siRNA per well", "timing": "72 h", "read-out": "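Reporter luminescence and viable-cell signal on separate replicate plates, given as percent of non-targeting control and median/MAD z-scores, plus per-cell luciferase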", "direction": "total luciferase, z-score: higher = more reporter protein produced", "active means": "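An siRNA counts as active if its total luciferase robust z-score exceeds 3; genes with two or more such siRNAs out of three were retested with fresh siRNAs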", "calls": "active = raised luciferase; inactive = no rise", "note": "The deposit covers about 59,000 reagents; below is a part drawn at random. About 1,510 of all reagents (2.6%) count as active. 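Calls use total luciferase alone and ignore viability, so some active siRNAs may act by altering cell number.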 Entries without a mark were called inactive. The numbers tell different reagents against one gene apart. Further read-outs or replicates are left out here."}
{"gene":"PBDC1","reagent":1,"total luciferase, z-score":-0.564}
{"gene":"PBDC1","reagent":2,"total luciferase, z-score":-1.14}
{"gene":"PBDC1","reagent":3,"total luciferase, z-score":-0.696}
{"gene":"OR13C5","reagent":1,"total luciferase, z-score":0.154}
{"gene":"OR13C5","reagent":2,"total luciferase, z-score":0.315}
{"gene":"OR13C5","reagent":3,"total luciferase, z-score":-0.535}
{"gene":"PARP11","reagent":1,"total luciferase, z-score":-0.00356}
{"gene":"PARP11","reagent":2,"total luciferase, z-score":-0.212}
{"gene":"PARP11","reagent":3,"total luciferase, z-score":0.985}
{"gene":"POMK","reagent":1,"total luciferase, z-score":-0.606}
{"gene":"POMK","reagent":2,"total luciferase, z-score":0.631}
{"gene":"POMK","reagent":3,"total luciferase, z-score":0.621}
{"gene":"MYH14","reagent":1,"total luciferase, z-score":0.288}
{"gene":"MYH14","reagent":2,"total luciferase, z-score":0.0799}
{"gene":"MYH14","reagent":3,"total luciferase, z-score":-2.98}
{"gene":"KLHL17","reagent":1,"total luciferase, z-score":-1.2}
{"gene":"KLHL17","reagent":2,"total luciferase, z-score":-0.229}
{"gene":"KLHL17","reagent":3,"total luciferase, z-score":-0.903}
{"gene":"KGD4","reagent":1,"total luciferase, z-score":0.619}
{"gene":"KGD4","reagent":2,"total luciferase, z-score":-1.93}
{"gene":"KGD4","reagent":3,"total luciferase, z-score":-1.33}
{"gene":"EBF2","reagent":1,"total luciferase, z-score":0.895}
{"gene":"EBF2","reagent":2,"total luciferase, z-score":-0.0647}
{"gene":"EBF2","reagent":3,"total luciferase, z-score":-0.994}
{"gene":"HOXA1","reagent":1,"total luciferase, z-score":-0.253}
{"gene":"HOXA1","reagent":2,"total luciferase, z-score":-0.103}
{"gene":"HOXA1","reagent":3,"total luciferase, z-score":-0.0751}
{"gene":"KCNC1","reagent":1,"total luciferase, z-score":-0.663}
{"gene":"KCNC1","reagent":2,"total luciferase, z-score":0.303}
{"gene":"KCNC1","reagent":3,"total luciferase, z-score":2.07}
{"gene":"DNAJC16","reagent":1,"total luciferase, z-score":-0.142}
{"gene":"DNAJC16","reagent":2,"total luciferase, z-score":-0.8}
{"gene":"DNAJC16","reagent":3,"total luciferase, z-score":-0.296}

5 of these entries, set out differently.
{"gene": "PBDC1", "reagent": 1, "total luciferase, z-score": -0.564}
{"gene": "PBDC1", "reagent": 2, "total luciferase, z-score": -1.14}
{"gene": "PBDC1", "reagent": 3, "total luciferase, z-score": -0.696}
{"gene": "OR13C5", "reagent": 1, "total luciferase, z-score": 0.154}
{"gene": "OR13C5", "reagent": 2, "total luciferase, z-score": 0.315}
